According to patent publication US20220273810A1 (IMCARE BIOTECH, published 2022):
No constants are given. Whether binding was seen depends on the method and setting. Some binding calls cover weakened binding; strength is not graded here.

T1: AS-SPIK (Abnormal Secreted serine protease inhibitor Kazal) (Homo sapiens (Human)) (UniProt P00995)
T1 sequence: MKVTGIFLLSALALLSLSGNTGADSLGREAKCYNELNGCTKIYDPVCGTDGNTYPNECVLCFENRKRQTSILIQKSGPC

B1: IM-D3 (antibody, V domains shown)
VH: QSVKESEGGLFKPTDTLTLTCTVSGFSLSSYAIGWVRQAPGNGLEWIGTIVTSGIPYYANWAKSRSTITRNTNLNTVTLKMTSLTAADTATYFCARNLDPAYSTTRLDLWGQGTLVTVSS
VL: AYDMTQTPASVSEPVRGTVTIKCQASQSISTALAWYQQKPGQPPKLLIYAASYLASGVPSRFSGSGSGTEFTLTISDLECADAATYYCHQGYSASNVDNTFGGGTEGGVKG
notes: Rabbit monoclonal antibody
B2: IM-G7 (antibody, V domains shown)
VH: QSVKESEGGLFKPTDTLTLTCTVSGFSLSSNVISWVRQAPGKGLEWIGDIYVSGNTDYASWAKSRSTITRNANLNTVTLKMTSLTAADTATYFCARYDMSSDAFDPWGPGTLVTVSS
VL: AYDMTQTPASVEVAVGGTVTIKCQASQNIGSYLSWYQHKPGQRPRLLMYRASTLASGVSSRFKGSGSGTEFTLTISGVQCDNAATYYCQQGYTNSGVDNTFGGGTEVVVKG
notes: Rabbit monoclonal antibody
B3: IM-C6 (antibody, V domains shown)
VH: QSVKESEGGLFKPTDALTLTCTVSGFSLSSYAISWVRQAPGSGLEWIGAINTYGGTYYASWAKSRSTITRNTNENTVTLKMTSLTAADTATYFCARDFDSDAYTSASGGMDPWGPGTLVTVSS
VL: AYDMTQTPASVEVAVGGTVTIKCQASQSINNYLSWYQQIPGQPPKLLIYRASTLASGVSSRFKGSGSGTQFTLTISGVQCADAATYYCQQGYTSNVDNVFGGGTEVVVKG
notes: Rabbit monoclonal antibody
B4: IM-A6 (antibody, V domains shown)
VH: QSVKESEGGLFKPTDTLTLTCTVSGFSLSSYAISWVRQAPGNGLEWIGRINSGGATDYASWARSRSTITRDTNLNTVTLQMTSLTAADTATYFCAKEEYSYGGAYGMWGPGTLVTVSS
VL: AYDMTQTPASVSAAVGGTVTIKCQASESISTYLSWLQQKPGQPPKLLIYKASTLASGVPSRFKGSGSGTEFTLTISGVQCDDAATYYCQQDYTISNVGNVFGGGTEVVVKG
notes: Rabbit monoclonal antibody; also called I-A6
B5: IM-F5 (antibody, V domains shown)
VH: QSVKESEGGLFKPTDTLTLTCTVSGFSLSIYGVSWVRQAPGNGLEWIGIIYASGSADYASWAKSRSTITRNTNLNTVTLKMTSLTAADTATYFCAREDDTYGYTSSIWGPGTLVTVSS
VL: AYDMTQTPASVSAAVGGTVTIKCQASQSISSYLNWYQQKPGQPPKRLIYRASTLASGVSSRFKGSGSGTQFTLTISGVECADAATYYCQQDYSSNNIDNTFGGGTEVVVKG
notes: Rabbit monoclonal antibody
B6: IM-G6 (antibody, V domains shown)
VH: QSVKESEGGLFKPTDTLTLTCTVSGFSLSSYPISWVRQAPGNGLEWIGDIYASGSILYASWATGRSTITRNTNLNTVTLKMTSLTAADTATYFCARVSYSGGTDIWGPGTLVTVSS
VL: AYDMTQTPASVEVAVGGTVTIKCQASEDIESYLAWYQQKPGQPPKLLIYRASTLPSGVPSRFKGSGSGTEFTLTISDLECADAATYYCQQDYSSSNVDNTFGGGTEVVVKG
notes: Rabbit monoclonal antibody
B7: IM-D5 (antibody, V domains shown)
VH: QSVKESEGGLFKPTDTLTLTCTVSGFSLSSYAISWVRQAPGNGLEWIGAIGKSGSAYYASWAKSRSTITRNTNLNTVSLKMTSLTAADTATYFCARWDSVGWTDARLDLWGQGTLVTVSS
VL: AYDMTQTPASVEVAVGGTVTIKCQASQSISTALAWYQQKPGQRPKLLIYGASKLASGVSSRFSGSGSGTEFTLTISGVECADAATYYCQQGYETSNVDNAFGGGTEVVVKG
notes: Rabbit monoclonal antibody

Target: T1, AS-SPIK (Abnormal Secreted serine protease inhibitor Kazal) (Homo sapiens (Human))
Test: sandwich ELISA, S2-3 medium, complex captured on polyclonal anti-SPIK plate

Row | binding | Binder
1 | binds | B1
2 | binds | B2
3 | binds | B3
4 | binds | B4
5 | binds | B5
6 | binds | B6
7 | binds | B7

Target: T1, AS-SPIK (Abnormal Secreted serine protease inhibitor Kazal) (Homo sapiens (Human))
Test: ELISA, plate-immobilized partially purified AS-SPIK from S2-3 cells

Row | binding | Binder
8 | binds | B1
9 | binds | B2
10 | binds | B3
11 | binds | B4
12 | binds | B5
13 | binds | B6
14 | binds | B7

Target: T1, AS-SPIK (Abnormal Secreted serine protease inhibitor Kazal) (Homo sapiens (Human))
Test: test of monoclonal antibodies of FIG. 1 (described in Example 1)

Row | binding | Binder
15 | binds | B1
16 | binds | B2
17 | binds | B3
18 | binds | B4
19 | binds | B5
20 | binds | B6
21 | binds | B7

Target: T1, AS-SPIK (Abnormal Secreted serine protease inhibitor Kazal) (Homo sapiens (Human))
Test: ELISA on a plate immobilised with partially purified AS-SPIK from S2-3 cells, OD450nm; antibody concentration not given

Row | binding | Binder
22 | binds | B1
23 | binds | B2
24 | binds | B3
25 | binds | B4
26 | binds | B5
27 | binds | B6
28 | binds | B7
